Results taken from PMC11809512, “Looking for approved-medicines to be repositioned as anti-Trypanosoma cruzi agents. Identification of new chemotypes with good individual- or in combination-biological behaviours” (Memórias do Instituto Oswaldo Cruz, 2025).

System: epimastigotes of T. cruzi (Tulahuen 2 strain, DTU Tc VI)
Experiment: Screening / IC50 against T. cruzi epimastigotes (growth, absorbance 610 nm, 5 days)
Assay type: cell-based, Trypanosoma cruzi
Conditions: 25 µM or 100 µg/mL; cut-off more than 65% inhibition
Procedure: Screening - Entities, dissolved in dimethylsulfoxide (DMSO, Sigma) before use and then diluted in a culture milieu, were firstly tested against epimastigotes of T. cruzi [Tulahuen 2 strain, discrete typing unit (DTU) Tc VI] as previously described.[14] ^, [15] […] The system was incubated at 28 °C for five days and to assess cell proliferation, cell density was monitored at 610 nm at time 0 (Ap0) and five days post incubation (Ap). All measures were normalised to the control population at day 0 (Ac0) and at day 5 (Ac5). Control parasites were incubated with 0.4% DMSO, corresponding to the highest DMSO concentration of the well. The percentage of parasite inhibition was calculated as: (Ap - Ap0)/(Ac5 - Ac0) × 100. This assay was independently performed three times. […] Secondly,[16] Vero (ATCC® CCL-81™) cells were infected with T. cruzi metacyclic trypomastigotes from 15 days old Dm28 clone (DTU Tc I) epimastigote cultures. […] Viability was analysed using resazurin, which is reduced to highly fluorescent resorufin. […] Fluorescence (excitation 530 nm / emission 590 nm) was measured in a Thermo Scientific Varioskan® Flash Multimode plate spectrofluorimeter instrument. […] Infected cells and amastigotes per cell were counted from randomly selected fields (400 cells per conditions). Two independent infections with trypomastigotes pre-treated with entities by two independent technicians were analysed. […]

Clc1ccc2c(c1)CCc1cccnc1C2=C1CCNCC1 [Deslor, Desloratadine]
anti-epimastigote activity in the initial screening (in words): did not show anti-epimastigote activity
